{"source": "patent US5385918A", "about": "(Miles Inc., priority 1993, dated 1995)", "data": [{"test": "general procedure: solution-phase peptide synthesis; 1-(3-dimethylaminopropyl)-3-ethylcarbodiimide methiodide / hydroxybenzotriazole", "conditions": "coupling step", "units": {"step yield": "%"}, "values": [{"substance": "1-[1-[2-[[3-Cyclohexyl-2-(S)-[[(1,1-dimethylethoxy)-carbonyl]amino]-1-oxopr opyl]amino]-4-methylpentyl]-L-proline]-L-isoleucine Phenylmethyl Ester", "step yield": 64}, {"substance": "1-[1-[2-(S)-[[2-(S)-[[(1,1-Dimethylethoxy)carbonyl]amino]-1-oxo-3-cyclohexy lpropyl]amino]-3-methylpentyl]-L-proline]-L-isoleucine Benzylamide", "step yield": 53}, {"substance": "1-[1-[2-(S)-[[1-[1-[(1,1-Dimethylethoxy)carbonyl]-L-phenylalanyl]-L-asparag inyl]amino]-4-methylpentyl]-L-proline]-L-isoleucine Phenylmethyl Ester", "step yield": 72}, {"substance": "1-[1-[2-(S)-[[4-Amino-2-(S)-[[(1,1-dimethylethoxy)-carbonyl]amino]-1,4-diox obutyl]amino]-4-methylpentyl]-L-proline]-L-isoleucine Phenylmethyl Ester", "step yield": 57}]}, {"test": "general procedure: solution-phase peptide synthesis; 1-(3-dimethylaminopropyl)-3-ethylcarbodiimide methiodide / hydroxybenzotriazole", "conditions": "late stage modification step", "units": {"step yield": "%"}, "values": [{"substance": "1-[1-[2-(S)-[[2-(S)-amino-3-cyclohexyl-1-oxopropyl]-amino]-4-methylpentyl]- L-proline]-L-isoleucine Phenylmethyl Ester", "step yield": 94}, {"substance": "1-[1-[2-(S)-[[1-[2-(S)-Amino-1-Oxo-3-phenylpropyl]-L-asparaginyl]amino]-4- m ethylpentyl]-L-proline]-L-isoleucine Phenylmethyl Ester", "step yield": 95}]}]}
